From PMC7412830
Results are given in words; binding and its absence hold for the method and conditions named. In cells and extracts the contact can be indirect. Some results given as binding are weak or reduced against the parent protein; the word gives no strength. Sequences can lack the tags named with a protein.

Chains of the proteins cited; added tags and fusions are not shown. Residues count along the entry.
UniProt O95831, residues 102-613: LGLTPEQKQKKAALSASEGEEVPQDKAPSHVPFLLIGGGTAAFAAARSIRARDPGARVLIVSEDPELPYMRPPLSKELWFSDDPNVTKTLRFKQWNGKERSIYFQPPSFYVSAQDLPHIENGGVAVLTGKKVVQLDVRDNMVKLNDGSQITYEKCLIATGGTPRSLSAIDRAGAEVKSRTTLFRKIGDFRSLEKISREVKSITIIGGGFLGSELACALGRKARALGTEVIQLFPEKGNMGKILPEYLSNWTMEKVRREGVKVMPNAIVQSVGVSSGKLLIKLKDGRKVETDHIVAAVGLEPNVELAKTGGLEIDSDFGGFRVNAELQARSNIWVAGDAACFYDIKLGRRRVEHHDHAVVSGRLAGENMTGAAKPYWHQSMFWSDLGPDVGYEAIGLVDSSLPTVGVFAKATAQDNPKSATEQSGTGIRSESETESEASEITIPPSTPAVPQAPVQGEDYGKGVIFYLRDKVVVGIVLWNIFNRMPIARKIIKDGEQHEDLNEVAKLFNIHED

Legend:
Test in all cases: co-IP; native immunoprecipitation against the HA tag of MIA40-HA variants (anti-HA agarose beads, overnight, 4 °C) from HEK293 cells; cells pre-treated with 20 mM NEM; lysis in 100 mM NaPi pH 8.1, 1% Triton X-100; washes with 250 mM NaCl; immunoblot against AIFM1
[1] = molecular target: T1, MIA40 wildtype, HA-tagged (MIA40^WT-HA) (human) (UniProt Q8N4Q1)
T1 sequence: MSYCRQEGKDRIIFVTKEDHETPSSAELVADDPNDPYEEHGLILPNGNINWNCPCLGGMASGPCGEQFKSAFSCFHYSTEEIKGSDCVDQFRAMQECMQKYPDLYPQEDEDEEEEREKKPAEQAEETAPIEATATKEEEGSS

[2] = molecular target: T2, MIA40^Δ108, HA-tagged (lacking amino acid residues 108-142) (human) (UniProt Q8N4Q1)
T2 sequence: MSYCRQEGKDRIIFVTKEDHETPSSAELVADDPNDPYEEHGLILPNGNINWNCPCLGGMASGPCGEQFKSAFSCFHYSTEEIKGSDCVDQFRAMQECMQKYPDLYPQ

[3] = molecular target: T3, MIA40^Δ40, HA-tagged (lacking the first 40 amino acids) (human) (UniProt Q8N4Q1)
T3 sequence: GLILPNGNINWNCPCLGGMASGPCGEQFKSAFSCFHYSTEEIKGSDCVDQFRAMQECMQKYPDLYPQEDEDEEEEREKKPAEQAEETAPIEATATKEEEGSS

binding [1]: binds | binding [2]: binds | binding [3]: no binding
Substance: apoptosis-inducing factor (AIFM1) (from UniProt O95831 102-613)
